Laboratory results taken from article doi:10.1101/780460.
Like-named read-outs stand apart in the source and are kept apart here. Results are given in words; binding and its absence hold for the method and conditions named. In cells and extracts the contact can be indirect. These calls come from enrichment with a bait or labelling near it, and not all partners need be listed. Values belong to the molecule of their own block, whether it stands above or below them.

Amino acid sequences for entries named in this document (tags omitted). A change or cut given only in a name is not applied to a line headed by its entry. Chains listed by the source or under a name are the forms on record and can include a tag or linker. Residues count along the entry.
UniProt P00441: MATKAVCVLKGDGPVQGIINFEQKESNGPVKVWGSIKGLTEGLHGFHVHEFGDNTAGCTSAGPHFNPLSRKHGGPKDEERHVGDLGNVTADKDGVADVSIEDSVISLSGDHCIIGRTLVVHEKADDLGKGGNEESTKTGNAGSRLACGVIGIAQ
misfolded human SOD1^G93A at spinal cord mitochondria of SOD1^G93A rats (P00441, form named): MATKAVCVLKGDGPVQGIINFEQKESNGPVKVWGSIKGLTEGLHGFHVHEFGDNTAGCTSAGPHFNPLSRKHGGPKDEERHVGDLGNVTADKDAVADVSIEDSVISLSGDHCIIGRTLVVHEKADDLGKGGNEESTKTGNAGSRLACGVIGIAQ
UniProt P10719, residues 47-529: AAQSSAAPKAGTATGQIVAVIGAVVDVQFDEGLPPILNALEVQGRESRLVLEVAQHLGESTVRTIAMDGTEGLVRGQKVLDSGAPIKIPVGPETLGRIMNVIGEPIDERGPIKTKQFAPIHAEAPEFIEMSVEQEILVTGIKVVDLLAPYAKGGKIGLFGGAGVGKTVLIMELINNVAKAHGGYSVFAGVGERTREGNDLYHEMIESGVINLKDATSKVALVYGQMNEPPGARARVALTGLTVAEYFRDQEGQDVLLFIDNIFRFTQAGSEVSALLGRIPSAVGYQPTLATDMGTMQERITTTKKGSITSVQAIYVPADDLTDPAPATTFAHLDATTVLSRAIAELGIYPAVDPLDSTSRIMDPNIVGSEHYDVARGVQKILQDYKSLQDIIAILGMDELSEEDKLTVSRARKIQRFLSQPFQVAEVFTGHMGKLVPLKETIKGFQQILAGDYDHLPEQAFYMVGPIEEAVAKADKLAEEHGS
UniProt Q9Z2L0: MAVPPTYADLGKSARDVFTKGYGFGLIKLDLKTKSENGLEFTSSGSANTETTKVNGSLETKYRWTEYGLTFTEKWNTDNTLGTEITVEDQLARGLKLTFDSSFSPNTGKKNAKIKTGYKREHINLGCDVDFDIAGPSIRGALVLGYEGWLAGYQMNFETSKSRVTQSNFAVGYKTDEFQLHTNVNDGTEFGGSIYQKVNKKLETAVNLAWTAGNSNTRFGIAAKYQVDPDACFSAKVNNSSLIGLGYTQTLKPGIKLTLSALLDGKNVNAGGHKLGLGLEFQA

Key:
[1] = biological target: misfolded human SOD1^G93A at spinal cord mitochondria of SOD1^G93A rats (human) (UniProt P00441); test: affinity purification with mass spectrometry
[2] = biological target: misfolded human SOD1^G93A at spinal cord mitochondria of SOD1^G93A rats (human) (UniProt P00441); test: affinity purification with mass spectrometry; remark: listed apart in the source

Molecule: ATP synthase subunit β (ATP5B), rat, endogenous (from UniProt P10719 47-529)
- binding [1]: binds

Molecule: voltage-gated anion channel 1 (VDAC1), rat, endogenous (from UniProt Q9Z2L0 1-283)
- binding [1]: binds

B1: 2-oxoglutarate dehydrogenase (OGDH), rat, endogenous (protein, UniProt Q5XI78 41-1023)
chain: SAPVAAEPFLSGTSSNYVEEMYCAWLENPKSVHKSWDIFFRNTNAGAPPGTAYQSPLSLSRSSLATMAHAQSLVEAQPNVDKLVEDHLAVQSLIRAYQIRGHHVAQLDPLGILDADLDSSVPADIISSTDKLGFYGLHESDLDKVFHLPTTTFIGGQEPALPLREIIRRLEMAYCQHIGVEFMFINDLEQCQWIRQKFETPGIMQFTNEEKRTLLARLVRSTRFEEFLQRKWSSEKRFGLEGCEVLIPALKTIIDMSSANGVDYVIMGMPHRGRLNVLANVIRKELEQIFCQFDSKLEAADEGSGDMKYHLGMYHRRINRVTDRNITLSLVANPSHLEAADPVVMGKTKAEQFYCGDTEGKKVMSILLHGDAAFAGQGIVYETFHLSDLPSYTTHGTVHVVVNNQIGFTTDPRMARSSPYPTDVARVVNAPIFHVNSDDPEAVMYVCKVAAEWRNTFHKDVVVDLVCYRRNGHNEMDEPMFTQPLMYKQIRKQKPVLQKYAELLVSQGVVNQPEYEEEISKYDKICEEAFTRSKDEKILHIKHWLDSPWPGFFTLDGQPRSMTCPSTGLEEDILTHIGNVASSVPVENFTIHGGLSRILKTRRELVTNRTVDWALAEYMAFGSLLKEGIHVRLSGQDVERGTFSHRHHVLHDQNVDKRTCIPMNHLWPNQAPYTVCNSSLSEYGVLGFELGFAMASPNALVLWEAQFGDFNNMAQCIIDQFICPGQAKWVRQNGIVLLLPHGMEGMGPEHSSARPERFLQMCNDDPDVLPNLQEENFDISQLYDCNWIVVNCSTPGNFFHVLRRQILLPFRKPLIVFTPKSLLRHPEARTSFDEMLPGTHFQRVIPEDGPAAQNPDKVKRLLFCTGKVYYDLTRERKARDMAEEVAITRIEQLSPFPFDLLLKEAQKYPNAELAWCQEEHKNQGYYDYVKPRLRTTIDRAKPVWYAGRDPAAAPATGNKKTHLTELQRFLDTAFDLDAFKKFS
- binding [2]: binds

Results, then the molecule that gave them:

- binding [2]: binds
B2: TNF receptor-associated factor 6 (TRAF6), rat, endogenous (protein, UniProt B5DF45 1-530)
chain: MSLLNCENSCASSQSSSDCCAAMANSCSAAMKDDSVSGCVSTGNLSSSFMEEIQGYDVEFDPPLESKYECPICLMALREAVQTPCGHRFCKACITKSIRDAGHKCPVDNEILLENQLFPDNFAKREILSLTVKCPNKGCVQKMELRHLEDHQVHCEFALVICPQCQRFFQKCQINKHIIEDCPRRQVSCVNCAVPMPYEEKEIHDQSCPLANIICEYCGTILIREQMPNHYDLDCPTAPVPCTFSVFGCHEKMQRNHLARHLQENTQLHMRLLAQAVHNVNLSLRPCDASSPSRGCRPEDPNYEETVKQLEGRLVRQDHQIRELTAKMETQSMHVSELKRTIRSLEDKVAEMEAQQCNGIYIWKIGNFGMHLKSQEEERPVVIHSPGFYTGRPGYKLCMRLHLQLPTAQRCANYISLFVHTMQGEYDSHLPWPFQGTIRLTILDQSEAVIRQNHEEVMDAKPELLAFQRPTIPRNPKGFGYVTFMHLEALRQGTFIKDDTLLVRCEVSTRFDMGGLRKEGFQPRSTDAGV

- binding [2]: binds
B3: ATP synthase F0 complex subunit β1 (ATP5F1), rat, endogenous (protein, UniProt P19511 43-256)
chain: PLPPLPEYGGKVRLGLIPEEFFQFLYPKTGVTGPYVLGTGLSLYFLSKEIYVITPETFSTISVVGLIVYVIKKYGASIGEFIDKLNEEKIAQLEEIKQSSMKQIQDAINREKAQQALVQKRHYLFDVQRNNIALALEVTYRERLHKAYKEVKNRLDYHISVQDMMRRKEGEHMINWVEKHVIQSISAQQEKETIAKCIGDLKMLAKKAQAQPIM
